Data as given in PubChem BioAssay AID1508588 (Peter MacCallum Cancer Centre, 2020)
This is one part, drawn at random, of about 18,000 deposited reagents. 790 of all reagents (4.4%) were called active. 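Calls rest on a combination of fold-change classes in drug and vehicle arms, not all shown here.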

Assay: 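Knock-downs boosting vemurafenib effects on melanoma cell growth or lactate release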 (primary screen)
Cell system: human WM266.4 melanoma cells (BRAF V600 mutant)
Reagent: siRNA pool against human genes, 40 nM
Timing: 96 h from transfection to read-out
Treatment: vemurafenib 300 nM (about IC25), added 48 h after transfection, for 48 h; comparison arm got DMSO vehicle only
Detection: 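Ratios to non-targeting siRNA for cell gain, counted as DAPI nuclei after minus before drug and averaged over two replicates, and for absorbance-read medium lactate per cell; both binned into fold-change classes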
Scale: cell gain with vemurafenib: higher = more cell gain than with non-targeting siRNA; lactate per cell with vemurafenib: higher = more lactate made per cell
Hit rule: 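Enhancement is called by pairing each knock-down's vehicle-arm and drug-arm fold-change classes for viability or glycolysis; which class combinations qualify is not given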
Meaning of the calls: active = enhances vemurafenib effect; inactive = no enhancement seen

gene symbol | PubChem SID | cell gain with vemurafenib | lactate per cell with vemurafenib | Outcome
FMR1NB (FMR1 neighbor) | SID135623205 | 0.66 | 0.6 | inactive
ZSCAN10 (zinc finger and SCAN domain containing 10) | SID134319069 | 0.26 | 0.76 | inactive
TPSD1 (tryptase delta 1) | SID135621133 | 0.83 | 0.97 | inactive
PPM1D (protein phosphatase, Mg2+/Mn2+ dependent 1D) | SID134310517 | 0.47 | 1.25 | inactive
TACR1 (tachykinin receptor 1) | SID135621064 | 1.03 | 1 | inactive
ELOVL1 (ELOVL fatty acid elongase 1) | SID134314110 | 0.38 | 1.02 | inactive
HEATR1 (HEAT repeat containing 1) | SID152149088 | 0.19 | 1.67 | inactive
CSRNP1 (cysteine and serine rich nuclear protein 1) | SID134317868 | 0.11 | 1.29 | inactive
HSD17B13 (hydroxysteroid 17-beta dehydrogenase 13) | SID134322375 | 1.28 | 0.82 | inactive
PNPLA6 (patatin like domain 6, lysophospholipase) | SID152147103 | 0.6 | 1.29 | inactive
CLDN8 (claudin 8) | SID135623265 | 0.74 | 0.54 | inactive
RTF1 (RTF1 homolog, Paf1/RNA polymerase II complex component) | SID135622673 | 0.47 | 1.07 | inactive
PITPNA (phosphatidylinositol transfer protein alpha) | SID152150527 | 0.79 | 0.9 | inactive
ANKRD40 (ankyrin repeat domain 40) | SID134319192 | 0.72 | 0.75 | inactive
ZNF473 (zinc finger protein 473) | SID135624403 | 0.23 | 2.26 | inactive
CBARP (CACN subunit beta associated regulatory protein) | SID152147870 | 1.01 | 0.64 | inactive
CHCHD3 (coiled-coil-helix-coiled-coil-helix domain containing 3) | SID152152505 | 0.98 | 1.06 | inactive
CXXC5 (CXXC finger protein 5) | SID152152177 | 0.27 | 1.47 | inactive
ZNF497 (zinc finger protein 497) | SID134326813 | 0.54 | 1.16 | inactive
GUCY2EP (guanylate cyclase 2E, pseudogene) | SID152152788 | 1.12 | 0.92 | inactive
C8orf34 (chromosome 8 open reading frame 34) | SID134319226 | 0.75 | 1.03 | inactive
COL2A1 (collagen type II alpha 1 chain) | SID152156125 | 0.32 | 1.3 | inactive
IFRD1 (interferon related developmental regulator 1) | SID152151529 | 0.62 | 0.71 | inactive
TCTN3 (tectonic family member 3) | SID152154259 | 0.62 | 0.86 | inactive
WDR24 (WD repeat domain 24) | SID152154951 | 1.04 | 0.74 | inactive
RPL24 (ribosomal protein L24) | SID135622067 | -0.02 | 1.12 | inactive
DCP2 (decapping mRNA 2) | SID152156651 | 1.19 | 0.88 | inactive
CCDC186 (coiled-coil domain containing 186) | SID134322940 | 1.2 | 1.11 | inactive
ZNF385D (zinc finger protein 385D) | SID134318573 | 0.56 | 1.38 | inactive
ZNF207 (zinc finger protein 207) | SID152150904 | 0.06 | 0.87 | inactive
S100A7A (S100 calcium binding protein A7A) | SID152149613 | 0.3 | 0.44 | active
EEF2KMT (eukaryotic elongation factor 2 lysine methyltransferase) | SID134326905 | 0.12 | 0.12 | inactive
ETFRF1 (electron transfer flavoprotein regulatory factor 1) | SID152153216 | 0.87 | 0.94 | inactive
TCF7L1 (transcription factor 7 like 1) | SID135622803 | 0.67 | 0.62 | inactive
HNRNPA1 (heterogeneous nuclear ribonucleoprotein A1) | SID135621526 | 1.38 | 0.56 | inactive
DSPP (dentin sialophosphoprotein) | SID152147381 | 0.08 | 0.88 | inactive
ITGB2 (integrin subunit beta 2) | SID135621489 | 0.64 | 0.97 | inactive
TMED8 (transmembrane p24 trafficking protein family member 8) | SID152152741 | 0.32 | 0.71 | inactive
IFI44L (interferon induced protein 44 like) | SID134310543 | 0.46 | 1.13 | inactive
DNAAF8 (dynein axonemal assembly factor 8) | SID152150626 | 0.51 | 0.39 | inactive
KRT85 (keratin 85) | SID152148125 | 0.65 | 1.21 | inactive
PCDHGA2 (protocadherin gamma subfamily A, 2) | SID135622494 | 0.4 | 0.52 | inactive
NIBAN1 (niban apoptosis regulator 1) | SID152154702 | 0.22 | 1.44 | inactive
WNT4 (Wnt family member 4) | SID152151801 | 0.27 | 1.25 | inactive
EIF1B (eukaryotic translation initiation factor 1B) | SID134323744 | 0.57 | 1.09 | inactive
BIRC8 (baculoviral IAP repeat containing 8) | SID134310431 | 1.3 | 0.66 | inactive
AMPD1 (adenosine monophosphate deaminase 1) | SID134314585 | 1.28 | 0.86 | inactive
OR2AK2 (olfactory receptor family 2 subfamily AK member 2) | SID152147809 | 0.33 | 2.24 | inactive
CHSY1 (chondroitin sulfate synthase 1) | SID135624180 | 0.07 | 0.62 | inactive
ADAMTS18 (ADAM metallopeptidase with thrombospondin type 1 motif 18) | SID152151092 | 0.42 | 1.17 | inactive
PLEKHG6 (pleckstrin homology and RhoGEF domain containing G6) | SID152147279 | 0.76 | 0.98 | inactive
SLC1A5 | SID152148192 | 0.3 | 1.31 | inactive
GLCCI1 (glucocorticoid induced 1) | SID152152001 | 0.1 | 2.36 | inactive
TTC9B (tetratricopeptide repeat domain 9B) | SID135623105 | 0.31 | 1.8 | inactive
CERS6 (ceramide synthase 6) | SID134329676 | 0.53 | 0.7 | inactive
CD1C (CD1c molecule) | SID152152446 | 1.14 | 0.82 | inactive
PTDSS2 (phosphatidylserine synthase 2) | SID134313800 | 0.61 | 0.92 | inactive
